Data source: PubChem BioAssay AID1159584 (Peter MacCallum Cancer Centre, 2016)
Assay: 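Genes that CDH1-null MCF10A cells selectively depend on to survive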 (primary screen). System: human MCF10A breast epithelial cells, parental and CDH1-null. Knock-down reagent: siRNA against human genes. Measured: 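ATP luminescence (CellTiter-Glo) viability per line relative to mean mock wells over all plates, and the ratio of CDH1-null to parental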. Direction: CDH1-null / parental viability ratio: higher = CDH1-null cells survive relatively better than parental; CDH1-null viability vs mock: higher = more viable CDH1-null cells.
In all, the deposit lists about 18,000 reagents; below is a part drawn at random. Reagents against one gene are numbered here. Not all columns of the deposit are shown. Reagent sequences are not shown. Not given: the amount of reagent, the time to read-out.

| target gene | reagent no. | CDH1-null / parental viability ratio | CDH1-null viability vs mock (fraction of mock) |
| --- | --- | --- | --- |
| GCNT3 | 1 | 0.98 | 0.86 |
| CDY1 | 1 | 1.2 | 0.72 |
| GRP | 1 | 1.49 | 0.55 |
| GTSF1L | 1 | 0.87 | 0.62 |
| HCLS1 | 1 | 1.06 | 0.69 |
| MRPL46 | 1 | 1.11 | 0.78 |
| ZRANB1 | 1 | 1.02 | 0.88 |
| ARHGAP27 | 1 | 1.01 | 0.79 |
| ARHGAP27 | 2 | 0.88 | 0.8 |
| RASA3 | 1 | 0.77 | 0.66 |
| OR8G1 | 1 | 1.07 | 0.8 |
| F3 | 1 | 1.05 | 0.99 |
| LRP12 | 1 | 1.28 | 0.92 |
| STAU2 | 1 | 1.22 | 1.1 |
| GPATCH2L | 1 | 0.95 | 0.54 |
| POLR1H | 1 | 0.89 | 0.75 |
| FCGBP | 1 | 0.8 | 0.76 |
| RNF31 | 1 | 1.01 | 0.98 |
| LONRF3 | 1 | 1.1 | 0.46 |
| RPH3AL | 1 | 1.24 | 1.04 |
| MRPS7 | 1 | 1.11 | 0.88 |
| WDR31 | 1 | 1.02 | 0.86 |
| ZIK1 | 1 | 1.19 | 1.02 |
| TCP11L1 | 1 | 1.05 | 0.84 |
| GNPDA2 | 1 | 0.88 | 0.9 |
| FKBP1A | 1 | 0.99 | 0.79 |
| PDE8A | 1 | 1.09 | 0.6 |
| CNGA2 | 1 | 1.13 | 0.88 |
| PROC | 1 | 1.03 | 0.31 |
| NOTCH4 | 1 | 0.85 | 0.84 |
| PIWIL2 | 1 | 0.72 | 0.56 |
| KCNA4 | 1 | 1.12 | 0.84 |
| SUDS3 | 1 | 1.05 | 0.9 |
| SLFNL1 | 1 | 0.97 | 0.9 |
| HERC2 | 1 | 1.09 | 0.94 |
| IGFBP7 | 1 | 1.03 | 0.6 |
| IBSP | 1 | 0.84 | 0.62 |
| FOLH1B | 1 | 1.29 | 0.8 |
| TRAFD1 | 1 | 0.67 | 0.62 |
| TFE3 | 1 | 0.98 | 0.98 |
| TEX28 | 1 | 1.35 | 0.73 |
| ITGB1 | 1 | 0.92 | 0.92 |
| SNX32 | 1 | 0.88 | 0.63 |
| FEM1A | 1 | 1.21 | 1.04 |
| MTMR8 | 1 | 1.48 | 0.74 |
| RNF125 | 1 | 0.96 | 0.96 |
| HPX | 1 | 0.93 | 0.56 |
| SNRNP25 | 1 | 0.67 | 0.38 |
| ZNF319 | 1 | 1.02 | 0.57 |
| PCDHA11 | 1 | 0.9 | 0.46 |
| ZNF174 | 1 | 1.16 | 0.64 |
| MRPL17 | 1 | 1.16 | 1.08 |
| MSC | 1 | 0.95 | 0.61 |
| NOP10 | 1 | 0.9 | 0.72 |
| FRMD7 | 1 | 1.16 | 1.04 |
| FAM53B | 1 | 1.07 | 0.73 |
| MAS1 | 1 | 0.86 | 0.98 |
| MRPS16 | 1 | 1.04 | 0.82 |
| ODC1 | 1 | 1.02 | 1.14 |
| SPATA31A3 | 1 | 1.01 | 0.86 |
| ELAPOR1 | 1 | 0.93 | 0.78 |
| POLE2 | 1 | 0.88 | 0.88 |
| ATP4B | 1 | 1.26 | 1.23 |
| CAVIN1 | 1 | 1.12 | 0.82 |
| LDLRAD3 | 1 | 0.81 | 0.5 |
| ERN2 | 1 | 0.92 | 0.79 |
| LRBA | 1 | 1.01 | 1.03 |
| ZNF530 | 1 | 1.23 | 0.87 |

8 neighbouring records from above, quoted:
| target gene | reagent no. | CDH1-null / parental viability ratio | CDH1-null viability vs mock (fraction of mock) |
| --- | --- | --- | --- |
| RNF31 | 1 | 1.01 | 0.98 |
| LONRF3 | 1 | 1.1 | 0.46 |
| RPH3AL | 1 | 1.24 | 1.04 |
| MRPS7 | 1 | 1.11 | 0.88 |
| WDR31 | 1 | 1.02 | 0.86 |
| ZIK1 | 1 | 1.19 | 1.02 |
| TCP11L1 | 1 | 1.05 | 0.84 |
| GNPDA2 | 1 | 0.88 | 0.9 |
